Data taken from the supplement of paper PMC12819154, “High-throughput peptide-centric local stability assay extends protein–ligand identification to membrane proteins, tissues and bacteria” (Nature Structural & Molecular Biology, 2025).
This is one part of the list. Most values lie at the level of the controls, where differences are scatter.

The chains behind the UniProt entries cited, without tags or fusion partners. Where a name states a change or a piece, a line headed by the entry shows the natural chain unless it says otherwise.
UniProt P42567: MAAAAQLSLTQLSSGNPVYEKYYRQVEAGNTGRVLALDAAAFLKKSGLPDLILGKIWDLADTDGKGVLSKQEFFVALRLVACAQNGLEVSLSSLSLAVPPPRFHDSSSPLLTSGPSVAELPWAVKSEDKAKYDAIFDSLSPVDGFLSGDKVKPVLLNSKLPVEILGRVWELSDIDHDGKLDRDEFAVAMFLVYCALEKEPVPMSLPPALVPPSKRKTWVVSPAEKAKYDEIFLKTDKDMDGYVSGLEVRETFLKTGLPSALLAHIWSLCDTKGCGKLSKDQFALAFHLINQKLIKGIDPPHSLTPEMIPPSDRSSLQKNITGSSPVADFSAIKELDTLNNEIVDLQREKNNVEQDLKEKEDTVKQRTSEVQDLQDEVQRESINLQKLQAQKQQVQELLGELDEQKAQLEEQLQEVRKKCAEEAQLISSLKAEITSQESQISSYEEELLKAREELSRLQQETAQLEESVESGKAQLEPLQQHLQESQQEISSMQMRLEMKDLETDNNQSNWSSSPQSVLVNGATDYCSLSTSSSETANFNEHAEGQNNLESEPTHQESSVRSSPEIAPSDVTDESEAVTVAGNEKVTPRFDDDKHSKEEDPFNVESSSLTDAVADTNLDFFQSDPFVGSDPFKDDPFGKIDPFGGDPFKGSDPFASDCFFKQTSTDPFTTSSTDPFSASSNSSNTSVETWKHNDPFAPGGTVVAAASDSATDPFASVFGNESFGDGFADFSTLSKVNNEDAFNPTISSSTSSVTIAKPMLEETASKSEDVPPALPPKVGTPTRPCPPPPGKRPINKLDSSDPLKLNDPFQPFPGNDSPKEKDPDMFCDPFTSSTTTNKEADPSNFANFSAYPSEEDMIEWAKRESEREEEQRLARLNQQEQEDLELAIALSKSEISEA
UniProt P29391: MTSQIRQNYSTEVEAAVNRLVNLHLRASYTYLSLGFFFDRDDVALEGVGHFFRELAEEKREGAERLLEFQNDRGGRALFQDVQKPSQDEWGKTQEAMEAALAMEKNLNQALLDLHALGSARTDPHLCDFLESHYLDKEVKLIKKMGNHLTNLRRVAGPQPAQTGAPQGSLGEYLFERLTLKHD
UniProt P52431: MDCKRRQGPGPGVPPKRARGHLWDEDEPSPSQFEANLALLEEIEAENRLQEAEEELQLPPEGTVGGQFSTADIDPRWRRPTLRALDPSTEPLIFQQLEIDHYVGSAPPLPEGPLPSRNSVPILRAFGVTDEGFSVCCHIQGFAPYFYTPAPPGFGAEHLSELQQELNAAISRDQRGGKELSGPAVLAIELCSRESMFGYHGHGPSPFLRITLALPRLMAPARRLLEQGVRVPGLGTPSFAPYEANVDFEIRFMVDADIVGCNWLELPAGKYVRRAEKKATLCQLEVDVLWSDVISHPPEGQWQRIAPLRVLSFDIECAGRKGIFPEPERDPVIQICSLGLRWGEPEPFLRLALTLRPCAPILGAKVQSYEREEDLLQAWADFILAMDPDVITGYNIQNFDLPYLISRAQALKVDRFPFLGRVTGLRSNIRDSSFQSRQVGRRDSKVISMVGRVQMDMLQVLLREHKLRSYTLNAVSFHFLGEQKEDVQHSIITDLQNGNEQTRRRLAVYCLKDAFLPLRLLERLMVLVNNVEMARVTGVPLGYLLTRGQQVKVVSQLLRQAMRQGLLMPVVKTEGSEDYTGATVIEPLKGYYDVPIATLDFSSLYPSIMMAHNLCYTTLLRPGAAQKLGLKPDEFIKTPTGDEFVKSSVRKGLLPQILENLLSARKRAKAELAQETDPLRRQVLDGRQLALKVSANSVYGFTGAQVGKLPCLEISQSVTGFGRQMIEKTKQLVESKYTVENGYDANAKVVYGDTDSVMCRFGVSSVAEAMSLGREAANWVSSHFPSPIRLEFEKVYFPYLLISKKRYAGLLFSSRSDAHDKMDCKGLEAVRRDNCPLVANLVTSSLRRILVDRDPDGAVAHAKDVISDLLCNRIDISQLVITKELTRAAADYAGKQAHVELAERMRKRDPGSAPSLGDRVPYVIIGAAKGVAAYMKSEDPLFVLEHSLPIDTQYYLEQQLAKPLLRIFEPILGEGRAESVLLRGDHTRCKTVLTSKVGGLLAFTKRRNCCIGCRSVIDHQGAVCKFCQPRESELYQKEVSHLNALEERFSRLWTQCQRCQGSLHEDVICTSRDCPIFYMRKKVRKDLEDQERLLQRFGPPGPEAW
UniProt P35285: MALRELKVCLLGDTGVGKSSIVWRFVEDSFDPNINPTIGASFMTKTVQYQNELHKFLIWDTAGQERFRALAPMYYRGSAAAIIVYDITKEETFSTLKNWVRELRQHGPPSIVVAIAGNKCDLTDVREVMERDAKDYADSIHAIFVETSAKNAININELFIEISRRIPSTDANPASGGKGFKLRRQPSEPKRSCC
UniProt P47811, whole entry: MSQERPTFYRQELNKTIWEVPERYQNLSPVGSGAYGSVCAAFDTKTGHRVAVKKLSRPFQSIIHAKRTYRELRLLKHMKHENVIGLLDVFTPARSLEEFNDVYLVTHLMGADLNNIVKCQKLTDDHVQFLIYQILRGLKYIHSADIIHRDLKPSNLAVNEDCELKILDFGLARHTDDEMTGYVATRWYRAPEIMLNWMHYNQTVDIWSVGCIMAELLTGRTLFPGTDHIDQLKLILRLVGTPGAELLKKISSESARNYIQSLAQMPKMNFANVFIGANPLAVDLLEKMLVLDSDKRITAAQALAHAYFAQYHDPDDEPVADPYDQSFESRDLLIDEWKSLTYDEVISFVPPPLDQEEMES
UniProt P56389: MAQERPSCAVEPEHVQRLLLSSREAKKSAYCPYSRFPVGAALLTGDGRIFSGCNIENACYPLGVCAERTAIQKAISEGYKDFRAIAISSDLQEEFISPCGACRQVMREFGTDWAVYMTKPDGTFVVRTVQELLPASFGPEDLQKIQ
UniProt P52840: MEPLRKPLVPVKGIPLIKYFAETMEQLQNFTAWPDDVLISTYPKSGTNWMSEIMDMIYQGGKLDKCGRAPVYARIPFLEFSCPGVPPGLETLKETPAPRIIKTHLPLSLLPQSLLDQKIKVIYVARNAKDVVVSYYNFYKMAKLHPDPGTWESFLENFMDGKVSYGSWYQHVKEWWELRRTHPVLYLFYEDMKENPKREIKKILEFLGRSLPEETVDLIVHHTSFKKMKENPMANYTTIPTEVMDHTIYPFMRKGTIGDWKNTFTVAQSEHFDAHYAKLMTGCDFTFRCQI
UniProt P29758: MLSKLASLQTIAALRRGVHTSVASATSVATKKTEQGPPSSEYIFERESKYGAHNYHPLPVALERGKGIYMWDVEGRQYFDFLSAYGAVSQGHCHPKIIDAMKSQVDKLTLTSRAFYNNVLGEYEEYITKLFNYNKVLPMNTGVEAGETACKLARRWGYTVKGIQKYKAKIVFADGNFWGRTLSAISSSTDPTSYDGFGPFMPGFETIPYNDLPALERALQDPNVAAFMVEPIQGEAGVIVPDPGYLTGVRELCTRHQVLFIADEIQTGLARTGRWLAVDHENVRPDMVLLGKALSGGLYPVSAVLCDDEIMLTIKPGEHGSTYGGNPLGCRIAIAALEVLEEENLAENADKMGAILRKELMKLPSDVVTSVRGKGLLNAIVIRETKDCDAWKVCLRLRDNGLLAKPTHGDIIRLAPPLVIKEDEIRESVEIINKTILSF
UniProt P53808: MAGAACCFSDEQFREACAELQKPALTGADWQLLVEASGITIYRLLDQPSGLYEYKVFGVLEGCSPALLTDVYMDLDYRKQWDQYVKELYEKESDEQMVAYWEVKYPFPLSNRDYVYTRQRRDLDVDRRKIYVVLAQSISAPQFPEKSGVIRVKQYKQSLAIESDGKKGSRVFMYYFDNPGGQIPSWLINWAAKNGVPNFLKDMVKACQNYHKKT
UniProt P51174: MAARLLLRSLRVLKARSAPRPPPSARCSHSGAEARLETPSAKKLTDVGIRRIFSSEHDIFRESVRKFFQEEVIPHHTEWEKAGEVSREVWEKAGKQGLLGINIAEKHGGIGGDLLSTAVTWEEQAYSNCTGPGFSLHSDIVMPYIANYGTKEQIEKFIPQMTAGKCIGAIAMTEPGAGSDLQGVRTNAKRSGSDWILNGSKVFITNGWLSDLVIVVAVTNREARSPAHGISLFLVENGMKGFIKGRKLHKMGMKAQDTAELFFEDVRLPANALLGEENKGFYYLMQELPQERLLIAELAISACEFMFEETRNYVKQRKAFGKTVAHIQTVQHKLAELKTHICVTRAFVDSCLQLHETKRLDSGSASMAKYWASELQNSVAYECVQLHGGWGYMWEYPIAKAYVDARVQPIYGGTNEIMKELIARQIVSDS
UniProt P51830: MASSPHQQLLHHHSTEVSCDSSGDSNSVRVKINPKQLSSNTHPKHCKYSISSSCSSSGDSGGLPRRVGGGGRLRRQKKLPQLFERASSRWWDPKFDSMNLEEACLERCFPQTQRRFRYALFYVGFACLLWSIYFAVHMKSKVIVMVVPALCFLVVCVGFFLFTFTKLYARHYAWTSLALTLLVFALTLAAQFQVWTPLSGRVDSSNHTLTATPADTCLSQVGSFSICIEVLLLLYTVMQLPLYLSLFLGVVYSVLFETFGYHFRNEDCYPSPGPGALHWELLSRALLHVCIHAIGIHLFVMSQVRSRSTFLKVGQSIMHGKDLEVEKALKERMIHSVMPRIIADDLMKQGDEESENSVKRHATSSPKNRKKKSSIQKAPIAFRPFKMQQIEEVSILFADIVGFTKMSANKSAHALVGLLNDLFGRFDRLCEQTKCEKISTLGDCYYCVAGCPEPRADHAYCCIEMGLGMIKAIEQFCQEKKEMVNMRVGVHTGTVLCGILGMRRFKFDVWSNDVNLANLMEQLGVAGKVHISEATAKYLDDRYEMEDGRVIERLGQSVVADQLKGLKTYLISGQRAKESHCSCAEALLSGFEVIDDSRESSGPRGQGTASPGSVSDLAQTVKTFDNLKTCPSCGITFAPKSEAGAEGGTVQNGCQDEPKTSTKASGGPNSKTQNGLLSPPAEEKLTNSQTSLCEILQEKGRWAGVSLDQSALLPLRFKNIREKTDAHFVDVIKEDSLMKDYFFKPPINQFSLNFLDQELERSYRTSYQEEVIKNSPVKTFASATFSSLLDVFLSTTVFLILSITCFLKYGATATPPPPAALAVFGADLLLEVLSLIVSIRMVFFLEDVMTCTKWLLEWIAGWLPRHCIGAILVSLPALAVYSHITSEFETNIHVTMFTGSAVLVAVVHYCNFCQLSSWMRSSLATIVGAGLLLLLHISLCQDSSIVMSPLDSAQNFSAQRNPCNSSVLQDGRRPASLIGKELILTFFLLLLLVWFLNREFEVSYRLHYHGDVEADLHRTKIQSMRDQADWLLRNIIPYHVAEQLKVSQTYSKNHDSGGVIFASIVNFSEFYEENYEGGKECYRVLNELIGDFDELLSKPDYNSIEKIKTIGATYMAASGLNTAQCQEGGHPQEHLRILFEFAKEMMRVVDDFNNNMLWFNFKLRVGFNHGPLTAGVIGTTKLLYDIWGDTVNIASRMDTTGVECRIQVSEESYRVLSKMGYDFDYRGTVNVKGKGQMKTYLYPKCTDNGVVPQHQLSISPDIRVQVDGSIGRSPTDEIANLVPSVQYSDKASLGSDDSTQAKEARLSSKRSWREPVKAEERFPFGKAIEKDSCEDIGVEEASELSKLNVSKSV
UniProt P46656: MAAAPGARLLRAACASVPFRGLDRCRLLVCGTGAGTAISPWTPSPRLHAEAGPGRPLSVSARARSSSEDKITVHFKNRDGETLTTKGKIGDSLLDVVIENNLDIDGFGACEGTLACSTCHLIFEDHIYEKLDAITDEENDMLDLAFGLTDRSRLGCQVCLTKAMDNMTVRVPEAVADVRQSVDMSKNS
UniProt P54254: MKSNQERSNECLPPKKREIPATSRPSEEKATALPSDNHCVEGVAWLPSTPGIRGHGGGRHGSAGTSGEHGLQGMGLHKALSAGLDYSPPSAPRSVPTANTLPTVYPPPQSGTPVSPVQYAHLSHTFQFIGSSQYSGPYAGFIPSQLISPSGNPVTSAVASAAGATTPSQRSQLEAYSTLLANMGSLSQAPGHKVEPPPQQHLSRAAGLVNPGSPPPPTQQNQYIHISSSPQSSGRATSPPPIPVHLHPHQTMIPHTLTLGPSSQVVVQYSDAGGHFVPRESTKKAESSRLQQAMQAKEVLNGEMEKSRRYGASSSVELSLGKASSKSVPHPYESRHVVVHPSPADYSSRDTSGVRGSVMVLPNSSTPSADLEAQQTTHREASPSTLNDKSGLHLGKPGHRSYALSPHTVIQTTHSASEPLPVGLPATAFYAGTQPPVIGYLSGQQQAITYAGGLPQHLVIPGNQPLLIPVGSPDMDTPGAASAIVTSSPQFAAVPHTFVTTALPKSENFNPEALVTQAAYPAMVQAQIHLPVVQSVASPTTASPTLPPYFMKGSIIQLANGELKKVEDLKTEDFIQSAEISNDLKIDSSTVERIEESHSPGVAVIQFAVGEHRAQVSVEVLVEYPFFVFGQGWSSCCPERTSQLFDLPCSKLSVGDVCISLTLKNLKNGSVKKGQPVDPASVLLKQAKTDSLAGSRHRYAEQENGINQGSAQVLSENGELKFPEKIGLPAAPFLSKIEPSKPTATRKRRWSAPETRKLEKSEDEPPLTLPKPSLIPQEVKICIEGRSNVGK

Compound: CN[C@@H]1C[C@H]2O[C@@](C)([C@@H]1OC)n1c3ccccc3c3c4c(c5c6ccccc6n2c5c31)C(=O)NC4 [staurosporine]
Test: log2 fold change of pooled soluble protein (PISA), ligand vs vehicle (log2 ratio); higher = more thermally stabilized
Details: ligand concentration: 20 uM; assay format: PISA pool 52.9/55.5/58.6 C

| Target | log2 fold change of pooled soluble protein |
| --- | --- |
| UniProt P31650 | 0.0213 |
| UniProt P32233 | -0.0647 |
| UniProt P52793 | -0.288 |
| UniProt P42567 | -0.0297 |
| UniProt P29391 | -0.725 |
| UniProt P29699 | -0.128 |
| UniProt P48437 | -0.111 |
| UniProt P52431 | 0.154 |
| UniProt P35285 | -0.282 |
| UniProt P51410 | -0.288 |
| UniProt P50136 | -0.0901 |
| UniProt P47811 | 0.0759 |
| UniProt P47877 | 0.0373 |
| UniProt P35601 | 0.208 |
| UniProt P42703 | 0.0707 |
| UniProt P35123 | 0.363 |
| UniProt P56389 | 0.195 |
| UniProt P30115 | -0.227 |
| UniProt P52840 | -0.196 |

At a glance, part of the list above.

| Target | log2 fold change of pooled soluble protein |
| --- | --- |
| UniProt P35601 | 0.208 |
| UniProt P42703 | 0.0707 |
| UniProt P35123 | 0.363 |

The list continues.

| Target | log2 fold change of pooled soluble protein |
| --- | --- |
| UniProt P48774 | 0.155 |
| UniProt P49025 | 0.138 |
| UniProt P29758 | -0.0381 |
| UniProt P56183 | 0.0169 |
| UniProt P40936 | 0.0994 |
| UniProt P53808 | -0.0122 |
| UniProt P51174 | -0.0341 |
| UniProt P35831 | -0.0249 |
| UniProt P51830 | -0.0844 |
| UniProt P46656 | 0.0201 |
| UniProt P47962 | -0.341 |
| UniProt P54254 | -0.245 |
| UniProt P51885 | 0.00187 |
| UniProt P55050 | -0.11 |
| UniProt P46718 | -0.0326 |
| UniProt P54071 | 0.0262 |
| UniProt P35293 | -0.121 |
| UniProt P30285 | -0.216 |
